# Reference: PubChem BioAssay (EPA / NIEHS)
# Protein sequences, listed by entry. Tags and fused reporters are not part of them. Lines headed by an entry give the natural chain unless they say otherwise; changes in a name come on top.
# UniProt P08684, whole entry, looked up: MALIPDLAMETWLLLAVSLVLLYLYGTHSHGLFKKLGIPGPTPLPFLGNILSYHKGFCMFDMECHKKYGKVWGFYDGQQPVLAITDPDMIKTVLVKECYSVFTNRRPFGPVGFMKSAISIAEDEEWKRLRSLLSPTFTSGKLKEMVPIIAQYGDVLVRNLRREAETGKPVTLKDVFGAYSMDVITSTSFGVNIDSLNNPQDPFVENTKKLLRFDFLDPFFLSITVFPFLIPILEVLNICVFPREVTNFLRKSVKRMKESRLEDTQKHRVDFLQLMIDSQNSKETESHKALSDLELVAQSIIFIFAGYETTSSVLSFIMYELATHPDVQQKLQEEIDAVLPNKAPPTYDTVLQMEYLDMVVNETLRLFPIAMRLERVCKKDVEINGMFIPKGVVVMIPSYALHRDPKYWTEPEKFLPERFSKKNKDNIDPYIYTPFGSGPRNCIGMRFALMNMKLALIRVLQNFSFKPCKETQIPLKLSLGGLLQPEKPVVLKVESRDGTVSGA
# UniProt Q5TCH4: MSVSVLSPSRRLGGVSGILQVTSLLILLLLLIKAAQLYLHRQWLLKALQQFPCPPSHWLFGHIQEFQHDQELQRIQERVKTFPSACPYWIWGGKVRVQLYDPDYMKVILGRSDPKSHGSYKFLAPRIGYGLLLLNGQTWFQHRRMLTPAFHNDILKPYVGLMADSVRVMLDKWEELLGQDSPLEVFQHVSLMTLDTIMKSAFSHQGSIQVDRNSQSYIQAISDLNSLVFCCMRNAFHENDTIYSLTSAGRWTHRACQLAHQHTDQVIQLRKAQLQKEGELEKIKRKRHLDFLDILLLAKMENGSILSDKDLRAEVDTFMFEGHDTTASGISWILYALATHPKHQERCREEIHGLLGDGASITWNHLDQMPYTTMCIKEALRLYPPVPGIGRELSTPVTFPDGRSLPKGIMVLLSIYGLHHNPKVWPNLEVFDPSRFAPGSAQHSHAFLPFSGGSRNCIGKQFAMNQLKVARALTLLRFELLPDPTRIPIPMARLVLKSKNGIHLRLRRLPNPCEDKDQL
# For part of these data: This list holds what a sample rich in hits left over. Only a part is listed here, and it is no random draw. Results filed as inconclusive are left out. Active and inactive are the calls of the source. How the source made its calls, unless noted: active means hit-call score of the fitted dose curve at least 0.9, where 1 is the maximum; inactive means score below 0.9.
# Tests used:
# [1] = CEETOX_H295R_11DCORT: CeeTox H295R High-throughput Steroidogenesis Assay for 11-Deoxycortisol (11DCORT) (AID 2283432); settings: actives raise or lower the signal
# Outline: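 H295R cells prestimulated 48 h with 10 uM forskolin, then exposed 48 h to chemical in 0.1% DMSO. 11-Deoxycortisol in medium quantified by HPLC-MS/MS after MTBE extraction; bidirectional fit versus DMSO. MTT viability read in same wells.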
# [2] = CEETOX_H295R_OHPREG: CeeTox H295R High-throughput Steroidogenesis Assay for OH-Pregnenolone (OHPREG) (AID 2283434); settings: actives raise or lower the signal
# [3] = CEETOX_H295R_CORTIC: CeeTox H295R High-throughput Steroidogenesis Assay for Corticosterone (CORTIC) (AID 2283437); settings: actives raise or lower the signal;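 further: corticosterone secreted into medium quantified by mass spectrometry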
# Outline: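 Steps: seed H295R, adhere overnight; 10 uM forskolin 48 h; replace with chemical (0.1% DMSO) 48 h; extract medium with MTBE; quantify corticosterone by HPLC-MS/MS; score bidirectionally vs DMSO.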
# [4] = CEETOX_H295R_PROG: CeeTox H295R High-throughput Steroidogenesis Assay for Progesterone (PROG) (AID 2283442); settings: actives raise or lower the signal
# Outline: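 Measured analyte is progesterone secreted by H295R cells at 48 h of chemical treatment, following 10 uM forskolin priming. Quantitation used HPLC-MS/MS against a 7-point standard curve; cytotoxicity was checked by MTT absorbance.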
# [5] = read-out: Peroxisomal acyl-coenzyme A oxidase 1 (ACOX1) gene, ACOX1 (gene 51); assay: LTEA_HepaRG_ACOX1: Life Technologies and Expression Analysis (LTEA) Assay for Peroxisomal acyl-coenzyme A oxidase 1 (ACOX1) gene using HepaRG (AID 2283467); settings: actives raise or lower the signal; mRNA level, 48 h
# Outline: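 Human HepaRG hepatic cultures, 48 h treatment with test chemicals up to 100 uM. ACOX1 expression read by qRT-PCR relative to 0.5% DMSO vehicle.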
# [6] = read-out: Cytochrome P450 3A4 (Homo sapiens) (UniProt P08684); assay: LTEA_HepaRG_CYP3A4: Life Technologies and Expression Analysis (LTEA) Assay for CYP3A4 using HepaRG (AID 2283487); settings: actives raise or lower the signal; mRNA level, 48 h
# Outline: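 Differentiated HepaRG cells in serum-free induction medium exposed in duplicate for 48 h to 8 half-log concentrations up to 100 uM in 0.5% DMSO. CYP3A4 mRNA measured by qRT-PCR normalized to ACTB, GAPDH and POLR2A; bidirectional fit versus DMSO.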
# [7] = read-out: Glutathione S-transferase M3 (GSTM3), GSTM3 (gene 2947); assay: LTEA_HepaRG_GSTM3: Life Technologies and Expression Analysis (LTEA) Assay for Glutathione S-transferase M3 (GSTM3) using HepaRG (AID 2283501); settings: actives raise or lower the signal; mRNA level, 48 h
# Outline: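 Expression of GSTM3 is determined by qRT-PCR in human liver HepaRG cells treated 48 h with an 8-point half-log range from 100 uM in 0.5% DMSO.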
# [8] = read-out: Insulin-like growth factor-binding protein 1 (IGFBP1), IGFBP1 (gene 3484); assay: LTEA_HepaRG_IGFBP1: Life Technologies and Expression Analysis (LTEA) Assay for Insulin-like growth factor-binding protein 1 (IGFBP1) using HepaRG (AID 2283508); settings: actives raise or lower the signal; mRNA level, 48 h
# Outline: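 HepaRG, 48 h, 8 conc. (max 100 uM, half-log), duplicates, 0.5% DMSO. Readout: TaqMan qRT-PCR, ACTB/GAPDH/POLR2A normalisation. Fit: bidirectional vs DMSO.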
# [9] = read-out: Transforming Growth Factor (TGFA), TGFA (gene 7039); assay: LTEA_HepaRG_TGFA: Life Technologies and Expression Analysis (LTEA) Assay for Transforming Growth Factor (TGFA) using HepaRG (AID 2283532); settings: actives raise or lower the signal; mRNA level, 48 h
# Outline: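 Gene expression of TGFA was quantified by qRT-PCR after human HepaRG cells were treated for 48 h with test chemicals (eight concentrations, highest 100 uM, 0.5% DMSO). Activity in either direction was fitted relative to DMSO.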
# TIMP1, TIMP1 (gene 7076) = assay: LTEA_HepaRG_TIMP1: Life Technologies and Expression Analysis (LTEA) Assay for TIMP1 using HepaRG (AID 2283534); settings: actives raise or lower the signal; mRNA level, 48 h
# Outline: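 TIMP1 induction or repression in HepaRG cells after 48 h chemical exposure (eight concentrations, highest 100 uM), assessed by normalized qRT-PCR with bidirectional fitting to DMSO controls.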
# [10] = read-out: adenosine kinase (ADK) gene, ADK (gene 132); assay: LTEA_HepaRG_ADK: Life Technologies and Expression Analysis (LTEA) Assay for adenosine kinase (ADK) gene using HepaRG (AID 2283471); settings: actives raise or lower the signal; mRNA level, 48 h
# Outline: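 Differentiated HepaRG cells dosed 48 h in serum-free induction medium, 0.5% DMSO vehicle, eight half-log concentrations from 100 uM, in duplicate. ADK mRNA by TaqMan qRT-PCR normalised to ACTB, GAPDH, POLR2A; bidirectional fit versus DMSO.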
# [11] = read-out: Pro-epidermal growth factor (Homo sapiens) (UniProt P01133); assay: LTEA_HepaRG_EGF: Life Technologies and Expression Analysis (LTEA) Assay for Epidermal growth factor (EGF) using HepaRG (AID 2283489); settings: actives raise or lower the signal; mRNA level, 48 h
# Outline: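 Concentration-response mRNA assay: HepaRG cells dosed 48 h (max 100 uM, 0.5% DMSO), EGF measured by qRT-PCR and normalized to ACTB/GAPDH/POLR2A.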
# [12] = read-out: Cytochrome P450 4A22 (Homo sapiens) (UniProt Q5TCH4); assay: LTEA_HepaRG_CYP4A22: Life Technologies and Expression Analysis (LTEA) Assay for Cytochrome P450 4A22 (CYP4A22) using HepaRG (AID 2283495); settings: actives raise or lower the signal; mRNA level, 48 h
# Outline: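 Concentration-response (8 points, max 100 uM, 0.5% DMSO) in human HepaRG liver cells after 48 h exposure. CYP4A22 mRNA by TaqMan qRT-PCR with housekeeping-gene normalization.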
# [13] = CCTE_Shafer_MEA_dev_burst_duration_mean: CCTE's Neural Network Formation Assay for Mean Burst Duration, Shafer Lab (AID 2284045);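 further: curve fitted for loss meaning shorter burst duration than DMSO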
# Outline: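 Network-formation assay in primary rat cortical neurons; treatment spans twelve days of development. Mean burst duration per well is integrated by trapezoidal AUC and fitted in the loss-of-signal direction against DMSO baseline.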
# [14] = CCTE_Mundy_HCI_iCellGluta_NOG_NeuronCount: CCTE's Neurite Outgrowth Assay in iCellGluta cells for Neuron Count, Mundy Lab (AID 2284340; active means hit-call score of the fitted dose curve at least 0.9, where 1 is the maximum;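 further: cells fixed about 48 h after compound addition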)
# Outline: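 Neuron count read by automated high-content imaging of Hoechst 33342 and betaIII-tubulin/Alexa Fluor-488 labelling in human iPSC glutamatergic neurons. Activity fitted relative to DMSO.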
# [15] = read-out: Alkaline Phosphatase, Placental (ALPP) gene, ALPP (gene 250); assay: LTEA_HepaRG_ALPP: Life Technologies and Expression Analysis (LTEA) Assay for Alkaline Phosphatase, Placental (ALPP) gene using HepaRG (AID 2283468); settings: actives raise or lower the signal; mRNA level, 48 h;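 further: differentiated human HepaRG liver cells in serum-free induction medium; ALPP transcript by TaqMan qRT-PCR normalized to ACTB GAPDH and POLR2A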
# Outline: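 Using human liver HepaRG cells, chemicals are tested in duplicate over 48 h at half-log concentrations topping at 100 uM; phenobarbital 1 mM serves as induction control. ALPP mRNA change by qRT-PCR, bidirectional fit against vehicle.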
# [16] = read-out: Cytochrome P450 (CYP24A1), CYP24A1 (gene 1591); assay: LTEA_HepaRG_CYP24A1: Life Technologies and Expression Analysis (LTEA) Assay for Cytochrome P450 (CYP24A1) using HepaRG (AID 2283478); settings: actives raise or lower the signal; mRNA level, 48 h
# Outline: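 Gene expression of CYP24A1 by TaqMan qRT-PCR in HepaRG after 48 h treatment, highest concentration 100 uM; activity fitted in both directions relative to DMSO vehicle.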
# HGF (gene 3082) = assay: LTEA_HepaRG_HGF: Life Technologies and Expression Analysis (LTEA) Assay for Hepatocyte Growth Facto (HGF) using HepaRG (AID 2283505); settings: actives raise or lower the signal; mRNA level, 48 h
# Outline: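 Using HepaRG monolayers kept in 0.5% DMSO, chemicals were tested in duplicate over eight half-log concentrations from 100 uM for 48 h. Endpoint: HGF mRNA change relative to DMSO, normalized to ACTB/GAPDH/POLR2A.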
compound,measurement,setting,value
CC(COCC(C)OC(=O)c1ccccc1)OC(=O)c1ccccc1 (stereo unspecified),outcome,[1],inactive
same,outcome,[2],inactive
same,outcome,[3],inactive
same,outcome,[4],inactive
same,outcome,[5],inactive
OC[C@H]1O[C@@H]2O[C@H]3[C@H](O)[C@@H](O)[C@@H](O[C@H]4[C@H](O)[C@@H](O)[C@@H](O[C@H]5[C@H](O)[C@@H](O)[C@@H](O[C@H]6[C@H](O)[C@@H](O)[C@@H](O[C@H]7[C@H](O)[C@@H](O)[C@@H](O[C@H]1[C@H](O)[C@H]2O)O[C@@H]7CO)O[C@@H]6CO)O[C@@H]5CO)O[C@@H]4CO)O[C@@H]3CO,outcome,[6],inactive
O=C(O)c1cc(N=Nc2ccc(S(=O)(=O)Nc3ccccn3)cc2)ccc1O,outcome,[6],inactive
same,outcome,[7],inactive
same,outcome,[8],inactive
same,outcome,[9],inactive
same,AC50,"TIMP1, TIMP1 (gene 7076)",active: 12.4 µM
C[C@]12C=CC(=O)C=C1CC[C@H]1[C@@H]3C[C@@H](O)[C@](O)(C(=O)CO)[C@@]3(C)C[C@H](O)[C@@]12F,outcome,[10],inactive
same,outcome,[11],inactive
same,outcome,[12],inactive
same,AC50,[13],active: 15 µM
same,AC50,[14],active: 24.2 µM
CC(=O)N1CCN(c2ccc(OC[C@H]3CO[C@](Cn4ccnc4)(c4ccc(Cl)cc4Cl)O3)cc2)CC1,AC50,[15],active: 15.2 µM
same,outcome,[16],inactive
same,outcome,[11],inactive
same,AC50,[12],active: 15.8 µM
same,AC50,HGF (gene 3082),active: 15.8 µM
